Article doi:10.1101/2023.09.04.556101

Amino acid sequences for entries named in this document (tags omitted).
UniProt Q92826: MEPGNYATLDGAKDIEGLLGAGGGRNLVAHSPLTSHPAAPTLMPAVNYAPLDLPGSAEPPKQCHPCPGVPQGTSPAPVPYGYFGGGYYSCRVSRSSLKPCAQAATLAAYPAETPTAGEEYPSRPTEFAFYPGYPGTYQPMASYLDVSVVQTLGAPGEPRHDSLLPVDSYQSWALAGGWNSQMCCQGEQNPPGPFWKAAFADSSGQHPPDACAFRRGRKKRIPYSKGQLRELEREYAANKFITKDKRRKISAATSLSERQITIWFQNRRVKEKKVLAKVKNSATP
UniProt Q86U86: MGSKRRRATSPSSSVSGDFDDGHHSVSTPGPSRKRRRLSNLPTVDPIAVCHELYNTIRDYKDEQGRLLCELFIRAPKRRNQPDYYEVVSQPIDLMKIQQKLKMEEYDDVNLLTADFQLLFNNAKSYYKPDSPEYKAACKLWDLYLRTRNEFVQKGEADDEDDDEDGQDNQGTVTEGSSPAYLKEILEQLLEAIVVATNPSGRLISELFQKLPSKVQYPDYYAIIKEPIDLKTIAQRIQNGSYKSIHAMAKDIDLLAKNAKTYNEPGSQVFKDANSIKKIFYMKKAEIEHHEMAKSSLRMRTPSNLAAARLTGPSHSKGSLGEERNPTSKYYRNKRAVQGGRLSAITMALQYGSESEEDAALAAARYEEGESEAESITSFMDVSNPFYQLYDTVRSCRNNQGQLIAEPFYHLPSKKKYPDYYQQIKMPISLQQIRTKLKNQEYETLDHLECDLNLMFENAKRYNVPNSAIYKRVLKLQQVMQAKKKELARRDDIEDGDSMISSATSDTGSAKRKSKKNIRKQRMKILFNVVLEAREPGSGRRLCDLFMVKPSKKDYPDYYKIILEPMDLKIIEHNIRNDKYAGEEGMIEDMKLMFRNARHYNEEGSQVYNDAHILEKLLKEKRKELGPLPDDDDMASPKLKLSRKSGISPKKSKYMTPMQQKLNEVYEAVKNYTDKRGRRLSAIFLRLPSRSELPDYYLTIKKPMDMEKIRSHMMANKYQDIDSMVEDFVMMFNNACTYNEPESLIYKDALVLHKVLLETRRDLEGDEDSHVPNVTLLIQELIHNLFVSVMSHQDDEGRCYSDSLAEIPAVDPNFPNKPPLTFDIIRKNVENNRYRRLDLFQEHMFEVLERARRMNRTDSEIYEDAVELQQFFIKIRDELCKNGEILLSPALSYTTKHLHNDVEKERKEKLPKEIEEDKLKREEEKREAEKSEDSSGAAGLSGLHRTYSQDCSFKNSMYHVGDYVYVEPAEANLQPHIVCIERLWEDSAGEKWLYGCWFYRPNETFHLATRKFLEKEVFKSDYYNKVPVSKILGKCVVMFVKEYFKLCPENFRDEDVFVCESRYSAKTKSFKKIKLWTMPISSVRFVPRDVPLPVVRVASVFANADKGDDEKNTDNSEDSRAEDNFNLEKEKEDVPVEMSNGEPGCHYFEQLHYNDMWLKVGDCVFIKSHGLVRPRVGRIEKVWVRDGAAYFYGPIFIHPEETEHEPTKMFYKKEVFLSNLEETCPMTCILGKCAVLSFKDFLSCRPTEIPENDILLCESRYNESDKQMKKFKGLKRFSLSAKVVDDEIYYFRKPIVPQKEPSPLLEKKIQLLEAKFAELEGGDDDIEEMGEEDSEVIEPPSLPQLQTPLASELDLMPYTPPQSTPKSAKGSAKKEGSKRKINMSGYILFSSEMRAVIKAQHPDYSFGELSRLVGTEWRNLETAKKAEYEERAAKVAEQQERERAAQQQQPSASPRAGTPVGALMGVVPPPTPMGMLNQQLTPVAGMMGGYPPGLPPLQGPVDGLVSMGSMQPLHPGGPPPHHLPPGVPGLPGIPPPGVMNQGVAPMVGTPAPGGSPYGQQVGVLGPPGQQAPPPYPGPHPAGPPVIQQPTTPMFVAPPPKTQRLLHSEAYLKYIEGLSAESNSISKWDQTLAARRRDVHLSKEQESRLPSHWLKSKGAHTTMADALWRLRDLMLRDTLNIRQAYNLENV
UniProt P51531: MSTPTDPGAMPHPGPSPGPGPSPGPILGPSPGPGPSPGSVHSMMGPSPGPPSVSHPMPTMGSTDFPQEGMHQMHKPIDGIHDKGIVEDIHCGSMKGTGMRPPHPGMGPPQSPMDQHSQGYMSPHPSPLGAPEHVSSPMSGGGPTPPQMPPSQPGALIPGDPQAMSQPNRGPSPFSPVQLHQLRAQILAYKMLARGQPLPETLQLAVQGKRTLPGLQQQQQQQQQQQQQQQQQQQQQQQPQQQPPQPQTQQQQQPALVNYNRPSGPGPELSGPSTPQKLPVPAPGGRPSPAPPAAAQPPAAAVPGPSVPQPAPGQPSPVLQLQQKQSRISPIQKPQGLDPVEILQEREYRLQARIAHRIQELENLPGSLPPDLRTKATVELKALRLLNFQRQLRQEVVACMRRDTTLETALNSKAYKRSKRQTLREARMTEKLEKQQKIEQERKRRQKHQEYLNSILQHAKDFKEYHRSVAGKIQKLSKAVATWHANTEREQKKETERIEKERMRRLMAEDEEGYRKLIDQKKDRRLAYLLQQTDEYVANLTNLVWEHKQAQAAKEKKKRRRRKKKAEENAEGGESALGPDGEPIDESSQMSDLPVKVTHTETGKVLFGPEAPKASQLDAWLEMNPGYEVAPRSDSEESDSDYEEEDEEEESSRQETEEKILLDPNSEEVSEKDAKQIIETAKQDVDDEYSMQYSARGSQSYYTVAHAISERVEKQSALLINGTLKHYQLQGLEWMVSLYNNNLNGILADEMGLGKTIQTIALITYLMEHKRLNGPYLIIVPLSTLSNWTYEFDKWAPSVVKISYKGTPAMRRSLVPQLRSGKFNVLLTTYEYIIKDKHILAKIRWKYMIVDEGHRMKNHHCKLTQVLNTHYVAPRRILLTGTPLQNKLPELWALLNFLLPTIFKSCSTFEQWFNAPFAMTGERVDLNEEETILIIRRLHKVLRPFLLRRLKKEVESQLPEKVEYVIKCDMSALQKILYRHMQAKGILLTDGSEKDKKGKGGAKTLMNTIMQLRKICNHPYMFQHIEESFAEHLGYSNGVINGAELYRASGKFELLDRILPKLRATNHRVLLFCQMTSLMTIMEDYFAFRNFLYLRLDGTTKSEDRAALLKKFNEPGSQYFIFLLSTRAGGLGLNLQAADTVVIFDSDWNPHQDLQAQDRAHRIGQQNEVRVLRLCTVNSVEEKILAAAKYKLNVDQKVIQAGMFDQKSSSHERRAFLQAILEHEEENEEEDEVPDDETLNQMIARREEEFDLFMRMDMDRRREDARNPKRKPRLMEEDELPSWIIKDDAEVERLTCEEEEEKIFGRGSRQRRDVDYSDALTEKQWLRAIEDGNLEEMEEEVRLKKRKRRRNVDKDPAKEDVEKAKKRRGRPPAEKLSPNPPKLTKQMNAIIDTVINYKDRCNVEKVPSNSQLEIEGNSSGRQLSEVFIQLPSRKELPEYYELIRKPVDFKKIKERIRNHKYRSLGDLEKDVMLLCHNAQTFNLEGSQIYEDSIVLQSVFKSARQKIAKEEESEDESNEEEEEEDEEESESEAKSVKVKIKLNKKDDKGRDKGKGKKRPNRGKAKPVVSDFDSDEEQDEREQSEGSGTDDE
UniProt Q92925: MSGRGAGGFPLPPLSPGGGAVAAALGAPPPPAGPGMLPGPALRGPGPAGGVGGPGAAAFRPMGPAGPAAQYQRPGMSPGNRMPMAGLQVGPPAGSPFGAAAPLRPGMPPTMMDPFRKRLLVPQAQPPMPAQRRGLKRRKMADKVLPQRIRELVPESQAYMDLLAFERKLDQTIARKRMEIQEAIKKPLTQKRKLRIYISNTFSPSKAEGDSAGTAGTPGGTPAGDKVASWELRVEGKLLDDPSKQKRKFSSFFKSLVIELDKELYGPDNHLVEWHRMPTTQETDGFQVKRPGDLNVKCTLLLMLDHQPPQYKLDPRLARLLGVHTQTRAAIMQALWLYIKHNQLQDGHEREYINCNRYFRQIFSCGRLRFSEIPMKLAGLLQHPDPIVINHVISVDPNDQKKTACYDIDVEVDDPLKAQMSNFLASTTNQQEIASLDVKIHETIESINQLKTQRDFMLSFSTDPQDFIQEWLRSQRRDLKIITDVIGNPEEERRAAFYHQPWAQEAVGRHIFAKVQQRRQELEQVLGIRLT
UniProt Q969G3: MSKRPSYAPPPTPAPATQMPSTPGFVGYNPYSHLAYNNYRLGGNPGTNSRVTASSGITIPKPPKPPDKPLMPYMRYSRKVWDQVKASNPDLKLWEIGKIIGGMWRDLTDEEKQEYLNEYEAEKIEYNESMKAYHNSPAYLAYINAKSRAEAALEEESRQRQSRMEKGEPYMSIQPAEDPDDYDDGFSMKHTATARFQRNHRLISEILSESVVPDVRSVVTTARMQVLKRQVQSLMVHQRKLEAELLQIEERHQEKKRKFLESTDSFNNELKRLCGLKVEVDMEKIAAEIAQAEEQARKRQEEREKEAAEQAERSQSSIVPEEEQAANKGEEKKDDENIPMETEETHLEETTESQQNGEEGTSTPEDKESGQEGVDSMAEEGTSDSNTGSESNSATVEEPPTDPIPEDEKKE
UniProt P10275: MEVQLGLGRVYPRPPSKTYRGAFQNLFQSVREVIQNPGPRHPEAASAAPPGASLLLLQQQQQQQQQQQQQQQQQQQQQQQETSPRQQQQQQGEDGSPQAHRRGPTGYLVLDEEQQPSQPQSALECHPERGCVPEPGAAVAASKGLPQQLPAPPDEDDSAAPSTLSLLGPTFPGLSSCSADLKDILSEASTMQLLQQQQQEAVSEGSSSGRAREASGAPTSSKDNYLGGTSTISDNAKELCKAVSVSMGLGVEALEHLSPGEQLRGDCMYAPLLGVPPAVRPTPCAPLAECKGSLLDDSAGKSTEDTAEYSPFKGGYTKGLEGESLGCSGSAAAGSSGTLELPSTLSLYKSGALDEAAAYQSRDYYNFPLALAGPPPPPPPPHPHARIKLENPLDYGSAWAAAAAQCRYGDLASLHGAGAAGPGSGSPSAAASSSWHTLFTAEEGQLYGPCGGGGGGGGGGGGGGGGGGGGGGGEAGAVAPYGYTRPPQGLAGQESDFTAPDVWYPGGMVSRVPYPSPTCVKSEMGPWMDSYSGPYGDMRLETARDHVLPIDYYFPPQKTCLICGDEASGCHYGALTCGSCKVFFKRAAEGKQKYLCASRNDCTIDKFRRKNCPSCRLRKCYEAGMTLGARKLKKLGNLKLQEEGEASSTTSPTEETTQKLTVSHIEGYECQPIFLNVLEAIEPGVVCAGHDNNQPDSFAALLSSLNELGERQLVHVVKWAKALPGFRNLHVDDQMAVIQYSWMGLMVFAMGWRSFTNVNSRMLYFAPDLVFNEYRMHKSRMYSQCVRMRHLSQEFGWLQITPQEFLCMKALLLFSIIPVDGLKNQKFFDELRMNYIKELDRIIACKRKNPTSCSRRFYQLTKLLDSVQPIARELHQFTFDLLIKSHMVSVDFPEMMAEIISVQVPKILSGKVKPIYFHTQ
UniProt P05412: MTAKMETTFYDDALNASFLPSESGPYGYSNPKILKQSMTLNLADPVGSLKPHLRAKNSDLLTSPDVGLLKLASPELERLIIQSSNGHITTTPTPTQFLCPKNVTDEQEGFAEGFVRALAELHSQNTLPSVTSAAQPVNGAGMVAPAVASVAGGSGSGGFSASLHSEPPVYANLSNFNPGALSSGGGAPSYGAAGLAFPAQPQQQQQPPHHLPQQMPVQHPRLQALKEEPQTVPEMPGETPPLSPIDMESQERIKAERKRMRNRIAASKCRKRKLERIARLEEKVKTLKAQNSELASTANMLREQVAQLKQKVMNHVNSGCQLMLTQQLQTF

Biological target: HOXB13 (human (endogenous in LNCaP, 22Rv1, PC3 and human prostate tissue)) (UniProt Q92826)
Assay: affinity purification with mass spectrometry

| Molecule | binding |
| --- | --- |
| PBRM1 (from UniProt Q86U86 1-1689) | binds |
| SMARCA2 (from UniProt P51531 1-1590) | binds |
| SMARCA4 (from UniProt P51532 1-1647) | binds |
| SMARCD2 (from UniProt Q92925 1-531) | binds |
| SMARCE1 (from UniProt Q969G3 1-411) | binds |
| androgen receptor (from UniProt P10275 1-920) | binds |
| cJUN (from UniProt P05412 1-331) | binds |
| FOXA1 (protein, UniProt P55317 1-472) MLGTVKMEGHETSDWNSYYADTQEAYSSVPVSNMNSGLGSMNSMNTYMTMNTMTTSGNMTPASFNMSYANPGLGAGLSPGAVAGMPGGSAGAMNSMTAAGVTAMGTALSPSGMGAMGAQQAASMNGLGPYAAAMNPCMSPMAYAPSNLGRSRAGGGGDAKTFKRSYPHAKPPYSYISLITMAIQQAPSKMLTLSEIYQWIMDLFPYYRQNQQRWQNSIRHSLSFNDCFVKVARSPDKPGKGSYWTLHPDSGNMFENGCYLRRQKRFKCEKQPGAGGGGGSGSGGSGAKGGPESRKDPSGASNPSADSPLHRGVHGKTGQLEGAPAPGPAASPQTLDHSGATATGGASELKTPASSTAPPISSGPGALASVPASHPAHGLAPHESQLHLKGDPHYSFNHPFSINNLMSSSEQQHKLDFKAYEQALQYSPYGSTLPASLPLGSASVTTRSPIEPSALEPAYYQGVYSRPVLNTS | binds |

No constants are given. Whether binding was seen depends on the method and setting. Binding seen in cells or lysates may run through a third protein. These calls come from enrichment with a bait or labelling near it, and not all partners need be listed.
